These are yes or no findings as the source states them, for the method shown. Some binding calls cover weakened binding; strength is not graded here.
How the values were obtained:
Assay in all cases: native gel or EMSA; colorless native PAGE (4-16% gradient, 4°C) of soluble extracts (20 mM HEPES pH 7.5, 20 mM KCl, 10% glycerol) of C. reinhardtii strains, immunoblot, in part after a second denaturing dimension; complexes told by co-migration and by their loss in deletion or mutant strains
[1] = molecular target: LSU A143W-R215A-D216A (LSU8mut) (Chlamydomonas reinhardtii) (UniProt P00877)
[2] = molecular target: LSU E109A-R253A (LSU2mut) (Chlamydomonas reinhardtii) (UniProt P00877)
[3] = molecular target: Rubisco large subunit (LSU) (Chlamydomonas reinhardtii (endogenous)) (UniProt P00877)

LSU A143W-R215A-D216A (LSU8mut) (from UniProt P00877 3-475)
binding [1]: binds

LSU E109A-R253A (LSU2mut) (from UniProt P00877 3-475)
binding [2]: no binding

Rubisco large subunit (LSU) (from UniProt P00877 3-475)
binding [3]: binds

— paper PMC8254502
